Common to all, as to assay: co-IP
Experiment [1] deals with 3xFLAG-Biotin-Hexahistidine tagged POLR3C (human) (UniProt Q9BUI4).
Experiment [2] concerns the target T1, 3xFLAG-Biotin-Hexahistidine tagged RPP29 (human) (UniProt O95707).
T1 sequence: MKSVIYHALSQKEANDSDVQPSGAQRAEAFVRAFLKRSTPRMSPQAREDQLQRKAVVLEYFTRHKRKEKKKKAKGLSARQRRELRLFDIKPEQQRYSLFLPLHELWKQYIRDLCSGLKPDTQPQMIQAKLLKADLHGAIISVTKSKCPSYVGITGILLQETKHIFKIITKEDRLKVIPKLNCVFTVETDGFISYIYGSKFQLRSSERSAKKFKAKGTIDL

Amino acid sequences for entries named in this document (tags omitted).
UniProt Q9BUI4: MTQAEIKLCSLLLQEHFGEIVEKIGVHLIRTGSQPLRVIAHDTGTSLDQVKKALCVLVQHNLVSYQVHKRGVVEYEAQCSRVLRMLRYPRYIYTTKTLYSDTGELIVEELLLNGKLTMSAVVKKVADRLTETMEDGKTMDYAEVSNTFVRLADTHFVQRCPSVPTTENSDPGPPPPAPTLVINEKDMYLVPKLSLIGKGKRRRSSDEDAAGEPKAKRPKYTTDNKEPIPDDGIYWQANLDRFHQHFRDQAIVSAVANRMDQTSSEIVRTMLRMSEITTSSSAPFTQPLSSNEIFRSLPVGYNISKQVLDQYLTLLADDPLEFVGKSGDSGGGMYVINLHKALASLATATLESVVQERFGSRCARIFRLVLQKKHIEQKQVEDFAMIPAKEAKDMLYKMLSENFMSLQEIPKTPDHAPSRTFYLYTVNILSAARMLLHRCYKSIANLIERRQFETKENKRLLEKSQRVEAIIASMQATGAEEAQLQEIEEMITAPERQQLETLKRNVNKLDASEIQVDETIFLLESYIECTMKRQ
UniProt P0DMV8: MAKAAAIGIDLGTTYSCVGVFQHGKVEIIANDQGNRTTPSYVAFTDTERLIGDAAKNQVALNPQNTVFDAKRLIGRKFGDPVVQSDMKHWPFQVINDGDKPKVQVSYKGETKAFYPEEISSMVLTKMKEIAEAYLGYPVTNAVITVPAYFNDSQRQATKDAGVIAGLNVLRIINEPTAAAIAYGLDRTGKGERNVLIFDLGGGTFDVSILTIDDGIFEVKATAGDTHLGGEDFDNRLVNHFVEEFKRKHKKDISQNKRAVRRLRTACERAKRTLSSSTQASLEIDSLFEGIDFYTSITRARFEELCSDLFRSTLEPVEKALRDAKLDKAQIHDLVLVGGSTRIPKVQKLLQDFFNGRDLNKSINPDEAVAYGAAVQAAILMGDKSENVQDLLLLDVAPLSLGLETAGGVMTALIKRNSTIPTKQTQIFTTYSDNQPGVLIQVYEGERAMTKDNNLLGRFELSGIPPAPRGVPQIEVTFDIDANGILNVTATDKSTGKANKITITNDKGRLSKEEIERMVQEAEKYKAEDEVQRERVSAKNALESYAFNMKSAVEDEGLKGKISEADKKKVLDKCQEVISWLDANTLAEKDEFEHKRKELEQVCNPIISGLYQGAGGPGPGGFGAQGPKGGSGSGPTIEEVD

Experiment [3] concerns the target 3xFLAG-Biotin-Hexahistidine tagged HSPA1A (human) (UniProt P0DMV8).

Results are given in words; binding and its absence hold for the method and conditions named. Binding seen in cells or lysates may run through a third protein. Some entries that bind do so weakly or less than the wild type. For some assays here: Tags and fused reporters may be left off the sequences shown.

On to “HSPA1A/B (endogenous Heat-Shock Protein 70) (from UniProt P0DMV8 1-641)”, for which the binding result in experiment [1] and in experiment [2] was “binds” each time.

B1: POP1 (protein, UniProt Q99575 1-1024)
chain: MSNAKERKHAKKMRNQPTNVTLSSGFVADRGVKHHSGGEKPFQAQKQEPHPGTSRQRQTRVNPHSLPDPEVNEQSSSKGMFRKKGGWKAGPEGTSQEIPKYITASTFAQARAAEISAMLKAVTQKSSNSLVFQTLPRHMRRRAMSHNVKRLPRRLQEIAQKEAEKAVHQKKEHSKNKCHKARRCHMNRTLEFNRRQKKNIWLETHIWHAKRFHMVKKWGYCLGERPTVKSHRACYRAMTNRCLLQDLSYYCCLELKGKEEEILKALSGMCNIDTGLTFAAVHCLSGKRQGSLVLYRVNKYPREMLGPVTFIWKSQRTPGDPSESRQLWIWLHPTLKQDILEEIKAACQCVEPIKSAVCIADPLPTPSQEKSQTELPDEKIGKKRKRKDDGENAKPIKKIIGDGTRDPCLPYSWISPTTGIIISDLTMEMNRFRLIGPLSHSILTEAIKAASVHTVGEDTEETPHRWWIETCKKPDSVSLHCRQEAIFELLGGITSPAEIPAGTILGLTVGDPRINLPQKKSKALPNPEKCQDNEKVRQLLLEGVPVECTHSFIWNQDICKSVTENKISDQDLNRMRSELLVPGSQLILGPHESKIPILLIQQPGKVTGEDRLGWGSGWDVLLPKGWGMAFWIPFIYRGVRVGGLKESAVHSQYKRSPNVPGDFPDCPAGMLFAEEQAKNLLEKYKRRPPAKRPNYVKLGTLAPFCCPWEQLTQDWESRVQAYEEPSVASSPNGKESDLRRSEVPCAPMPKKTHQPSDEVGTSIEHPREAEEVMDAGCQESAGPERITDQEASENHVAATGSHLCVLRSRKLLKQLSAWCGPSSEDSRGGRRAPGRGQQGLTREACLSILGHFPRALVWVSLSLLSKGSPEPHTMICVPAKEDFLQLHEDWHYCGPQESKHSDPFRSKILKQKEKKKREKRQKPGRASSDGPAGEEPVAGQEALTLGLWSGPLPRVTLHCSRTLLGFVTQGDFSMAVGCGEALGFVSLTGLLDMLSSQPAAQRGLVLLRPPASLQYRFARIAIEV
For B1, the binding result in experiment [2] is recorded as “binds”.

B2: RPP21 (protein, UniProt Q9H633 1-154)
chain: MAGPVKDREAFQRLNFLYQAAHCVLAQDPENQALARFYCYTERTIAKRLVLRRDPSVKRTLCRGCSSLLVPGLTCTQRQRRCRGQRWTVQTCLTCQRSQRFLNDPGHLLWGDRPEAQLGSQADSKPLQPLPNTAHSISDRLPEEKMQTQGSSNQ
Consider B2, for which the binding result in experiment [2] was “binds”.

B3: PolR3A (endogenous RNA Pol III component) (protein, UniProt O14802 1-1390)
chain: MVKEQFRETDVAKKISHICFGMKSPEEMRQQAHIQVVSKNLYSQDNQHAPLLYGVLDHRMGTSEKDRPCETCGKNLADCLGHYGYIDLELPCFHVGYFRAVIGILQMICKTCCHIMLSQEEKKQFLDYLKRPGLTYLQKRGLKKKISDKCRKKNICHHCGAFNGTVKKCGLLKIIHEKYKTNKKVVDPIVSNFLQSFETAIEHNKEVEPLLGRAQENLNPLVVLNLFKRIPAEDVPLLLMNPEAGKPSDLILTRLLVPPLCIRPSVVSDLKSGTNEDDLTMKLTEIIFLNDVIKKHRISGAKTQMIMEDWDFLQLQCALYINSELSGIPLNMAPKKWTRGFVQRLKGKQGRFRGNLSGKRVDFSGRTVISPDPNLRIDEVAVPVHVAKILTFPEKVNKANINFLRKLVQNGPEVHPGANFIQQRHTQMKRFLKYGNREKMAQELKYGDIVERHLIDGDVVLFNRQPSLHKLSIMAHLARVKPHRTFRFNECVCTPYNADFDGDEMNLHLPQTEEAKAEALVLMGTKANLVTPRNGEPLIAAIQDFLTGAYLLTLKDTFFDRAKACQIIASILVGKDEKIKVRLPPPTILKPVTLWTGKQIFSVILRPSDDNPVRANLRTKGKQYCGKGEDLCANDSYVTIQNSELMSGSMDKGTLGSGSKNNIFYILLRDWGQNEAADAMSRLARLAPVYLSNRGFSIGIGDVTPGQGLLKAKYELLNAGYKKCDEYIEALNTGKLQQQPGCTAEETLEALILKELSVIRDHAGSACLRELDKSNSPLTMALCGSKGSFINISQMIACVGQQAISGSRVPDGFENRSLPHFEKHSKLPAAKGFVANSFYSGLTPTEFFFHTMAGREGLVDTAVKTAETGYMQRRLVKSLEDLCSQYDLTVRSSTGDIIQFIYGGDGLDPAAMEGKDEPLEFKRVLDNIKAVFPCPSEPALSKNELILTTESIMKKSEFLCCQDSFLQEIKKFIKGVSEKIKKTRDKYGINDNGTTEPRVLYQLDRITPTQVEKFLETCRDKYMRAQMEPGSAVGALCAQSIGEPGTQMTLKTFHFAGVASMNITLGVPRIKEIINASKAISTPIITAQLDKDDDADYARLVKGRIEKTLLGEISEYIEEVFLPDDCFILVKLSLERIRLLRLEVNAETVRYSICTSKLRVKPGDVAVHGEAVVCVTPRENSKSSMYYVLQFLKEDLPKVVVQGIPEVSRAVIHIDEQSGKEKYKLLVEGDNLRAVMATHGVKGTRTTSNNTYEVEKTLGIEAARTTIINEIQYTMVNHGMSIDRRHVMLLSDLMTYKGEVLGITRFGLAKMKESVLMLASFEKTADHLFDAAYFGQKDSVCGVSECIIMGIPMNIGTGLFKLLHKADRDPNPPKRPLIFDTNEFHIPLVT
Consider B3, for which, in experiment [3], the binding entry was “binds”.

Values taken from article doi:10.1101/2023.04.10.536203.
